From patent publication US6600015B2, “Selective linear peptides with melanocortin-4 receptor (MC4-R) agonist activity” (Hoffmann-La Roche Inc., priority 2000, dated 2003)
Some results were stated once for a whole list of compounds, not compound by compound.

The chains behind the UniProt entries cited, without tags or fusion partners.
UniProt P32245, whole entry: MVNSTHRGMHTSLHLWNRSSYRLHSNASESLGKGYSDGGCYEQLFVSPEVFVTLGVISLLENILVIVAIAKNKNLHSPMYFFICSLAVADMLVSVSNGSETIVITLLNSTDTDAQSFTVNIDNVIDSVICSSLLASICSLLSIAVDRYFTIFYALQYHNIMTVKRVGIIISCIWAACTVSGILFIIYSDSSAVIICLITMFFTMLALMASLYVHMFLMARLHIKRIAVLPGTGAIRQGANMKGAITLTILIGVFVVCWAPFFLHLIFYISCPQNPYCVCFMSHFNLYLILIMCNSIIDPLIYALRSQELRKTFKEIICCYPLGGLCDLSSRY

Target: T1, MC-4 receptor (Homo sapiens, UniProt P32245)
T1 construct: expressed in transfected cells; host or cells: 293 cells (293MC4, obtained from Dr. Wei Gu, Millenium)
Assay: Agonist assay: cAMP response in 293 cells transfected with MC-4 receptor (Biotrak-cAMP SPA)
Assay type: cell-based
Details: MC4-R versus MC1-R agonist activity, transfected 293 cells
Description: Description: 293 cells transfected with either the MC-4 receptor or MC-1 receptor were grown in 96 well plates. The cells were stimulated with either 100 nM NDP-αMSH or screening compounds. Cyclic AMP was extracted from the cells and concentrations were determined using a Biotrak-cAMP SPA assay. Agonists were identified as those compounds causing an increase in cAMP. […] Wei Gu, Millenium) were cultured in 75cm^2flasks in D-MEM supplemented with 10% FCS and 500 μg/ml G418. Cells were trypsinized and split 1:3 into 96 well flat-bottom tissue culture treated plates. Cells were stimulated at confluence (day 2-4). cAMP Response: Compounds serially diluted in 100% DMSO were further diluted 1:200 (2.5 μl compound dilution+500 μl media) in D-MEM containing 10% FBS and 0.1 mM IBMX. For unstimulated cells, 2.5 μl of DMSO was added to 500 μl of media. For NDP-αMSH stimulated cells, 2.5 μl of 20 μM NDP-αMSH in 100% DMSO was added to 500 μl of media (final conc. 100 nM). Final concentration of DMSO in all wells was 0.5%. Note: Each sample was run in duplicate on separate plates Culture medium was removed from confluent 96 well culture plates and replaced with 200 μl of above dilutions into the appropriate wells . The plates were incubated for 1 hr at RT. […] [125I]cAMP binding to the SPA beads was determined by counting each plate for 2 minutes on a Packard TopCount™. […]

SMILES: CCCCC(=O)NC1(C(=O)N[C@H](Cc2ccccc2)C(=O)N[C@@H](CCCNC(=N)N)C(=O)N[C@@H](Cc2c[nH]c3ccccc23)C(=O)NCC(N)=O)CC=C(c2ccccc2)CC1 (single isomer, unassigned) [Penta-Ape-(D)Phe-Arg-Trp-Gly-NH2]
- MC4-R agonist activity greater than MC1-R agonist activity (selectivity): at least 10 fold
